The other results are listed elsewhere or left out.
Key:
Experiment in all cases: glycan array binding signal (z-score within array); higher = stronger binding
Conditions in all cases: glycan notation: IUPAC condensed, linker removed
[1] = target: Fuc(a1-3)[Gal(b1-4)]GlcNAc(b1-3)Gal(b1-4)[Fuc(a1-3)]GlcNAc
How it was run: (§1)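 From the Consortium for Functional Glycomics database, 3228 arrays were curated, keeping only those whose protein sequence was available. Binding is given as a within-array Z-score averaged across arrays sharing a protein sequence and across linkers. Negative Z-scores can be read as non-binding.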

[2] = target: Fuc(a1-3)[Gal(b1-4)]GlcNAc(b1-3)Gal(b1-4)[Fuc(a1-3)]GlcNAc(b1-3)Gal(b1-4)[Fuc(a1-3)]GlcNAc
How it was run: as §1

[3] = target: Fuc(a1-3)[Gal(b1-4)]GlcNAc(b1-3)GalNAc
How it was run: as §1

[4] = target: Fuc(a1-3)[Gal(b1-4)]GlcNAc(b1-6)GalNAc
How it was run: as §1

[5] = target: Fuc(a1-3)[Gal(b1-4)]GlcNAc(b1-6)[Gal(b1-3)GlcNAc(b1-3)]Gal(b1-4)Glc
How it was run: as §1

[6] = target: Fuc(a1-3)[Gal(b1-4)]GlcNAc6S
How it was run: as §1

[7] = target: Fuc(a1-3)[Gal3S(b1-4)]Glc
How it was run: as §1

[8] = target: Fuc(a1-3)[Gal3S(b1-4)]GlcNAc
How it was run: as §1

[9] = target: Fuc(a1-3)[Gal3S(b1-4)]GlcNAc6S
How it was run: as §1

[10] = target: Fuc(a1-3)[GalNAc(b1-4)]GlcNAc
How it was run: as §1

[11] = target: Fuc(a1-3)[GalNAc(b1-4)]GlcNAc6S
How it was run: as §1

[12] = target: Fuc(a1-4)GlcNAc
How it was run: as §1

[13] = target: Fuc(b1-3)GlcNAc
How it was run: as §1

[14] = target: Gal(a1-2)Gal
How it was run: as §1

[15] = target: Gal(a1-3)Gal
How it was run: as §1

[16] = target: Gal(a1-3)Gal(b1-3)GlcNAc
How it was run: as §1

[17] = target: Gal(a1-3)Gal(b1-3)GlcNAc(b1-2)Man
How it was run: as §1

[18] = target: Gal(a1-3)Gal(b1-3)GlcNAc(b1-2)Man(a1-3)[Gal(a1-3)Gal(b1-3)GlcNAc(b1-2)Man(a1-6)]Man(b1-4)GlcNAc(b1-4)GlcNAc
How it was run: as §1

[19] = target: Gal(a1-3)Gal(b1-3)GlcNAc(b1-3)GalNAc
How it was run: as §1

[20] = target: Gal(a1-3)Gal(b1-3)GlcNAc(b1-6)GalNAc
How it was run: as §1

[21] = target: Gal(a1-3)Gal(b1-3)[Fuc(a1-4)]GlcNAc(b1-2)Man(a1-3)[Gal(a1-3)Gal(b1-3)[Fuc(a1-4)]GlcNAc(b1-2)Man(a1-6)]Man(b1-4)GlcNAc(b1-4)GlcNAc
How it was run: as §1

[22] = target: Gal(a1-3)Gal(b1-4)Glc
How it was run: as §1

[23] = target: Gal(a1-3)Gal(b1-4)GlcNAc
How it was run: as §1

[24] = target: Gal(a1-3)Gal(b1-4)GlcNAc(b1-2)Man
How it was run: as §1

[25] = target: Gal(a1-3)Gal(b1-4)GlcNAc(b1-2)Man(a1-3)[Gal(a1-3)Gal(b1-4)GlcNAc(b1-2)Man(a1-6)]Man(b1-4)GlcNAc(b1-4)GlcNAc
How it was run: as §1

[26] = target: Gal(a1-3)Gal(b1-4)GlcNAc(b1-3)GalNAc
How it was run: as §1

[27] = target: Gal(a1-3)Gal(b1-4)GlcNAc(b1-6)GalNAc
How it was run: as §1

[28] = target: Gal(a1-3)Gal(b1-4)[Fuc(a1-3)]GlcNAc
How it was run: as §1

[29] = target: Gal(a1-3)Gal(b1-4)[Fuc(a1-3)]GlcNAc(b1-2)Man(a1-3)[Gal(a1-3)Gal(b1-4)[Fuc(a1-3)]GlcNAc(b1-2)Man(a1-6)]Man(b1-4)GlcNAc(b1-4)GlcNAc
How it was run: as §1

[30] = target: Gal(a1-3)GalNAc
How it was run: as §1

[31] = target: Gal(a1-3)[Gal(a1-4)]Gal(b1-4)GlcNAc
How it was run: as §1

[32] = target: Gal(a1-4)Gal(b1-3)GlcNAc(b1-2)Man(a1-3)[Gal(a1-4)Gal(b1-3)GlcNAc(b1-2)Man(a1-6)]Man(b1-4)GlcNAc(b1-4)GlcNAc
How it was run: as §1

[33] = target: Gal(a1-4)Gal(b1-4)Glc
How it was run: as §1

[34] = target: Gal(a1-4)Gal(b1-4)GlcNAc
How it was run: as §1

[35] = target: Gal(a1-4)Gal(b1-4)GlcNAc(b1-2)Man(a1-3)[Gal(a1-4)Gal(b1-4)GlcNAc(b1-2)Man(a1-6)]Man(b1-4)GlcNAc(b1-4)GlcNAc
How it was run: as §1

[36] = target: Gal(a1-4)Gal(b1-4)GlcNAc(b1-3)Gal(b1-4)Glc
How it was run: as §1

[37] = target: Gal(a1-4)GlcNAc
How it was run: as §1

[38] = target: Gal(a1-6)Glc
How it was run: as §1

B1: SJCP1084 (Schistosoma japonicum) (protein)
chain: MRIINLVIISTALLLINLLQTKSQANGEDTKNGTPDDPGLTKSTELKVEVQALLKDKKTNMRVKWNENLLDNTKPEYHNLRDEACELLLQIVRSVVPLSQDDGECKDVTFTKYVVGTKDGAVNVKLTITFKDSVAINQKPMDLKLKLENDFKNLQSESTLKATKPTFTVKVEKRLIPISKPQTTPPTTAKNDASKENVGDIGGEDSTVPTAAPATAASANEEKDEGDKDNKDSQHPNVLTSNVNDRNLIIALVALMILAIGVALTAAVKQR
glycan array binding signal (z-score) [1]: -0.624
glycan array binding signal (z-score) [2]: 0.4
glycan array binding signal (z-score) [3]: -0.157
glycan array binding signal (z-score) [4]: -0.123
glycan array binding signal (z-score) [5]: -0.702
glycan array binding signal (z-score) [6]: -0.293
glycan array binding signal (z-score) [7]: -0.309
glycan array binding signal (z-score) [8]: -1.01
glycan array binding signal (z-score) [9]: -0.255
glycan array binding signal (z-score) [10]: 2.05
glycan array binding signal (z-score) [11]: -0.057
glycan array binding signal (z-score) [12]: 0.003
glycan array binding signal (z-score) [13]: -0.731
glycan array binding signal (z-score) [14]: 1.02
glycan array binding signal (z-score) [15]: 0.743
glycan array binding signal (z-score) [16]: 0.63
glycan array binding signal (z-score) [17]: -0.775
glycan array binding signal (z-score) [18]: -0.595
glycan array binding signal (z-score) [19]: -0.633
glycan array binding signal (z-score) [20]: -0.974
glycan array binding signal (z-score) [21]: -0.179
glycan array binding signal (z-score) [22]: -0.352
glycan array binding signal (z-score) [23]: -0.447
glycan array binding signal (z-score) [24]: -0.709
glycan array binding signal (z-score) [25]: 0.448
glycan array binding signal (z-score) [26]: -0.457
glycan array binding signal (z-score) [27]: -0.882
glycan array binding signal (z-score) [28]: -0.073
glycan array binding signal (z-score) [29]: -0.203
glycan array binding signal (z-score) [30]: -0.418
glycan array binding signal (z-score) [31]: 2
glycan array binding signal (z-score) [32]: 3.06
glycan array binding signal (z-score) [33]: -0.509
glycan array binding signal (z-score) [34]: 0.984
glycan array binding signal (z-score) [35]: 1.42
glycan array binding signal (z-score) [36]: -0.643
glycan array binding signal (z-score) [37]: -0.675
glycan array binding signal (z-score) [38]: -0.741

From the supplement of paper PMC8728848
